Article PMC7210110
Results are given in words; binding and its absence hold for the method and conditions named. Some entries that bind do so weakly or less than the wild type. Where a sequence is shown, tags or fusion partners need not be part of it.

Columns and labels:
[1] = molecular target: T1, AtHAK1 (Arabidopsis HDS-associated receptor-like kinase 1), cell-free synthesised, biotinylated (bls) copy and FLAG-tagged copy (Arabidopsis) (UniProt C0LGD7); test: AlphaScreen or HTRF; AlphaScreen between biotinylated and FLAG-conjugated proteins synthesised in a cell-free system
T1 sequence (chain, biotin on the biotin ligation site (bls copy only)): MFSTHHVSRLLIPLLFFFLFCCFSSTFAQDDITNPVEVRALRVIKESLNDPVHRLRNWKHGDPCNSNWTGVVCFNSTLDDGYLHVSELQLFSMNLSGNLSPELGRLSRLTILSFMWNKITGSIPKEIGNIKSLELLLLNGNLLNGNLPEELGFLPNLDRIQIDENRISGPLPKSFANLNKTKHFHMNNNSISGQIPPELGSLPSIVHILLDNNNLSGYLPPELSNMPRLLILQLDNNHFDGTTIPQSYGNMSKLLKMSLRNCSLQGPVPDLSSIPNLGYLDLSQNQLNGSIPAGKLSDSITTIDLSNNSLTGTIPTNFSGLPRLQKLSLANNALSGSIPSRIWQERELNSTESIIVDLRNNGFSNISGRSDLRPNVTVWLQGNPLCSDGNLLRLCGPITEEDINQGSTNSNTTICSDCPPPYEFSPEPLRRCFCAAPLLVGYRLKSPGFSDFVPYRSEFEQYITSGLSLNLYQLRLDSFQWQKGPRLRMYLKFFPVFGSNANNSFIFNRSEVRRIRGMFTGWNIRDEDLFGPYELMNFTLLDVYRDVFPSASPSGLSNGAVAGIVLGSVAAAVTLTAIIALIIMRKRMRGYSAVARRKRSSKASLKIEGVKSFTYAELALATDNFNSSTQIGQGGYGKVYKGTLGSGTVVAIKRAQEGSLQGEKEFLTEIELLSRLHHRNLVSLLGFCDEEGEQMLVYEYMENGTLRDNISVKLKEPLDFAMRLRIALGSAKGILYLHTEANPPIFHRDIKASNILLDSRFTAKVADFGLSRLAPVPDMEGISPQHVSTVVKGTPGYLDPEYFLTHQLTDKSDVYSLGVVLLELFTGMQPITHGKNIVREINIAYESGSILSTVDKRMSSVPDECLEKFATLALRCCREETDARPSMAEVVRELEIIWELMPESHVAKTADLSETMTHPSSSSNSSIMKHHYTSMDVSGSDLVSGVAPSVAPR

[2] = molecular target: T2, AtCERK1 (Arabidopsis chitin elicitor receptor kinase 1), cell-free synthesised, FLAG-tagged (Arabidopsis) (UniProt A8R7E6); test: as above
T2 sequence: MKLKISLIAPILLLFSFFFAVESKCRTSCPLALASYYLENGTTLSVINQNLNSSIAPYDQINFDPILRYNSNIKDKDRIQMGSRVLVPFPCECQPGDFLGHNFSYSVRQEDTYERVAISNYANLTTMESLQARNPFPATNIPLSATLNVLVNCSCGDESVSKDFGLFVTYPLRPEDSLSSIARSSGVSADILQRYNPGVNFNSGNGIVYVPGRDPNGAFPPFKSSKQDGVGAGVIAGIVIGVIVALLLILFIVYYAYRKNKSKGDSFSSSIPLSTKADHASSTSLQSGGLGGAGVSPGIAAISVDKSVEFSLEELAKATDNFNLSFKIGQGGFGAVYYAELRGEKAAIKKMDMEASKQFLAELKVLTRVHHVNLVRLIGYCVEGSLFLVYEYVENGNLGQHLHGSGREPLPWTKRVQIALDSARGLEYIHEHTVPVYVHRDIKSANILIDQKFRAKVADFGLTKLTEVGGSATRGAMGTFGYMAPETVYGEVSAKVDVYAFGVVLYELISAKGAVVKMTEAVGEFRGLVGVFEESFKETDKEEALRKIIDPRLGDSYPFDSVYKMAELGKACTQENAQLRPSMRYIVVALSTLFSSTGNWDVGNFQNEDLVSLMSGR

B1: AtPBL27, cell-free synthesised, biotinylated (protein, UniProt Q1PDV6 1-513)
chain: MSGCLPCFGSSAKDAASKDSVKKELSAKDGSVTQSHHISLDKSKSRRGPEQKKELTAPKEGPTAHIAAQTFTFRELAAATKNFRPECLLGEGGFGRVYKGRLETTGQIVAVKQLDRNGLQGNREFLVEVLMLSLLHHPNLVNLIGYCADGDQRLLVYEYMPLGSLEDHLHDLPPDKEPLDWSTRMTIAAGAAKGLEYLHDKANPPVIYRDLKSSNILLGDGYHPKLSDFGLAKLGPVGDKTHVSTRVMGTYGYCAPEYAMTGQLTLKSDVYSFGVVFLELITGRKAIDNARAPGEHNLVAWARPLFKDRRKFPKMADPSLQGRYPMRGLYQALAVAAMCLQEQAATRPLIGDVVTALTYLASQTFDPNAPSGQNSRSGSGPPFIRTRDDRRSLGDGSSLDSPAETRSRLGSPATHKNSPDYRRRDMVREVNAGSEGGSETGGGSGRKWGLSDLEGQESQRGSPASVGRSSRGTPRNRDLDRERAVAEAKVWGENWRERKRATNGPGSFDSTND
modifications: biotin on the biotin ligation site
[1]
  binding: binds
[2]
  binding: binds
